{
  "sequences": {"note": "Protein sequences, listed by entry. Tags and fused reporters are not part of them. Lines headed by an entry give the natural chain unless they say otherwise; changes in a name come on top.", "UniProt B6EUB3": "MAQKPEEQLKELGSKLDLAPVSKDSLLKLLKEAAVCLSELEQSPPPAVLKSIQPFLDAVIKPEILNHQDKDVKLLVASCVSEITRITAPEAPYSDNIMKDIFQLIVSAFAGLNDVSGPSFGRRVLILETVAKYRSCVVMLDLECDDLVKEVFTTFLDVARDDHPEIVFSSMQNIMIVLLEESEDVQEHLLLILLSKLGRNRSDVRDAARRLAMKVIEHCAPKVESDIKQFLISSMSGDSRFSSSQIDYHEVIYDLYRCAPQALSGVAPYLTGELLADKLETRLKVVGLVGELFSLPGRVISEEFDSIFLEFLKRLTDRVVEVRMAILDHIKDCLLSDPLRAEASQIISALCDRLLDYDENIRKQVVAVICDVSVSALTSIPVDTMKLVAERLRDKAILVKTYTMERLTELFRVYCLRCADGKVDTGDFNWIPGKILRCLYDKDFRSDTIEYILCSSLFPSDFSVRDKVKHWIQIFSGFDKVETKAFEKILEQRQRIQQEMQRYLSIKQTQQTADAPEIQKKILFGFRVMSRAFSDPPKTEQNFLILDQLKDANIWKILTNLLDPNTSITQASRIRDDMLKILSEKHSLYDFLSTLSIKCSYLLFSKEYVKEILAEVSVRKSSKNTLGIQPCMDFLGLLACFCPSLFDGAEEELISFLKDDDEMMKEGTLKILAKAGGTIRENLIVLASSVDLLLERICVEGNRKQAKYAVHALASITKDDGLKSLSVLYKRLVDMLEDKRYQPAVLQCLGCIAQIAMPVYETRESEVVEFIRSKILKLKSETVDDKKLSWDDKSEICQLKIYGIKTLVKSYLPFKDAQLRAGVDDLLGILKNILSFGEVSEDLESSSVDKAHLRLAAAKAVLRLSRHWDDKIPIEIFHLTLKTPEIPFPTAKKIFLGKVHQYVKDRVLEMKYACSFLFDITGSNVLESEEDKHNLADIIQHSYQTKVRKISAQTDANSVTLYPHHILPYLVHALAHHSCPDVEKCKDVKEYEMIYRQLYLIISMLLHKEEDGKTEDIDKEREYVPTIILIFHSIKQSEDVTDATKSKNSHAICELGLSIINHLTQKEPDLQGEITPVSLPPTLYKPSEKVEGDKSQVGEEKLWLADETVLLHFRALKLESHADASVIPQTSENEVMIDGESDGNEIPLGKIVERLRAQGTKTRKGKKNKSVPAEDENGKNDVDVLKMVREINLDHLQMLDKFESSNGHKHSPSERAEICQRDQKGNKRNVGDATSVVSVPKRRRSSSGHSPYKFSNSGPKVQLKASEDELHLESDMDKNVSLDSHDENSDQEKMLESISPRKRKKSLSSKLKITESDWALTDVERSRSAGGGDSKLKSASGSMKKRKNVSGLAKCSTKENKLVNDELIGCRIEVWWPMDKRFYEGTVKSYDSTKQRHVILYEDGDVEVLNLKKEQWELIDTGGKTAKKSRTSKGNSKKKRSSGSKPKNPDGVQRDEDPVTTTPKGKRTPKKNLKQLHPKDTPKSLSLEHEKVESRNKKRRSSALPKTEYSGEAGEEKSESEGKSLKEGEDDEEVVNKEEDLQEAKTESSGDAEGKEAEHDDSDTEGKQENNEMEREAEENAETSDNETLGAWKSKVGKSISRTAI", "UniProt Q53KW9": "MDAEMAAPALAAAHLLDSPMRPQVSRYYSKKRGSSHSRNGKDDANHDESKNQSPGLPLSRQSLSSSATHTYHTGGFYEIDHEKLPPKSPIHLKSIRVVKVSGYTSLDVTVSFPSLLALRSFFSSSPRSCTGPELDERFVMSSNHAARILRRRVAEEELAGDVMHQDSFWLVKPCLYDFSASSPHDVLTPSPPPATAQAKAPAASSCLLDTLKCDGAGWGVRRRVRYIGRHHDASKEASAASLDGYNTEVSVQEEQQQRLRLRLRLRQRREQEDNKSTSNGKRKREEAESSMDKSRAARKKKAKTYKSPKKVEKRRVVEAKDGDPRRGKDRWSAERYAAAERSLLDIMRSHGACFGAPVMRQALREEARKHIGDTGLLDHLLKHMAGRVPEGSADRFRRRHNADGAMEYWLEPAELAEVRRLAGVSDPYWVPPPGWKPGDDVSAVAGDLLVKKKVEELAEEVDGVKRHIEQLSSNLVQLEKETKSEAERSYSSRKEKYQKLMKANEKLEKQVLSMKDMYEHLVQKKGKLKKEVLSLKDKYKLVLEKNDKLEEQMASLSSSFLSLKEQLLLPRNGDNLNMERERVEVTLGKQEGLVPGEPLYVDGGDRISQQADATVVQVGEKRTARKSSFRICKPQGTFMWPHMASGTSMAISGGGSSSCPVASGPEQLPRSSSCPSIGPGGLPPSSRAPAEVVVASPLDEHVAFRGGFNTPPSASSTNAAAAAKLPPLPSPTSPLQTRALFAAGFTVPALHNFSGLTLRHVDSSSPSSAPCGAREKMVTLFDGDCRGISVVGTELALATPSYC"},
  "source": "paper doi:10.1101/551317",
  "molecules": {"B1": {"name": "SWITCH 1/DYAD (SWI1), yeast two-hybrid fusion (protein, UniProt Q9FGN8 1-639)", "chain": "MSSTMFVKRNPIRETTAGKISSPSSPTLNVAVAHIRAGSYYEIDASILPQRSPENLKSIRVVMVSKITASDVSLRYPSMFSLRSHFDYSRMNRNKPMKKRSGGGLLPVFDESHVMASELAGDLLYRRIAPHELSMNRNSWGFWVSSSSRRNKFPRREVVSQPAYNTRLCRAASPEGKCSSELKSGGMIKWGRRLRVQYQSRHIDTRKNKEGEESSRVKDEVYKEEEMEKEEDDDDGNEIGGTKQEAKEITNGNRKRKLIESSTERLAQKAKVYDQKKETQIVVYKRKSERKFIDRWSVERYKLAERNMLKVMKEKNAVFGNSILRPELRSEARKLIGDTGLLDHLLKHMAGKVAPGGQDRFMRKHNADGAMEYWLESSDLIHIRKEAGVKDPYWTPPPGWKLGDNPSQDPVCAGEIRDIREELASLKRELKKLASKKEEEELVIMTTPNSCVTSQNDNLMTPAKEIYADLLKKKYKIEDQLVIIGETLRKMEEDMGWLKKTVDENYPKKPDSTETPLLLEDSPPIQTLEGEVKVVNKGNQITESPQNREKGRKHDQQERSPLSLISNTGFRICRPVGMFAWPQLPALAAATDTNASSPSHRQAYPSPFPVKPLAAKRPLGLTFPFTIIPEEAPKNLFNV"}, "B2": {"name": "HisMBP-WAPL1 (protein, UniProt F4I7C7 1-930)", "chain": "MIIVKLTANRICCSLLQLRRSYEHFYIFVFLPEIPLFRFSHLKLFPKNLQIQRLVSAMMERTYGRRKPGIPRTLSDSLNDSVSQTEYLSSSSSPDIEPIDYSLLPFSSQESSSLWHSSSRSNFREDYPQNGGVVRRAKRVRNGAEAAAFTSTLLEAQEFGELMEHEDEVNFALDGLRKGHQLRIRRASLSSLLSICASQHQRRSLRAQGISQSIIDAILVLSLDDIPSNLAAATLFFALTADGQDEHFMESPKCIKFLIKLLKPVIVTSTEGKPRNIGFKLLSLLKDVDAARDPVKMDDPSSSDILSRVQELLVNCKEMRLNDSYITETTRPELSTKWVALLAMERACVSKISFDDTSGSVKKTGGNFKEKLRELGGLDAVLEVVMDCHAVMERWVEYDALSVQEKKDNLHKQSLMLLLKCLKIMENATFLSTDNQNHLLGFKKCLGSHDSRMSFTELTISVIKMLSGLHLRGGFSSPNTNNVNSHYSNGGNHDSVLEANRKVTNEVVTISSDTYSTVGSISTRNGSVSQRSQSIIHLDFSPTSMSGSQSSVSGNEPTTSKTRVGSTISGSFAGRLASLGSDIARTTLRTTQAGEPICKKFGEFAPPEESEDPFAFDLEDYKPSKWAVVSVNQKKSRAQKKKGCYKQSKDESLYQLFSSQEESSNHRLNSQEESSNRDCSTSLQPSHCTNDIDEECLCLLFDCLLTAVKVLMNLTNDNVVGCRQVGGCRGLESMAELIARHFPSFTRSQLFSEMEKTGSSHQKKDKYLTDQELDFLVAILGLLVNLVERDGVNRSRLASASVPITKPEELQESEQEMIPLLCSIFLTNQGSAETKEETTTFTLDDEEAVLEGEKEAEKMIVEAYSALLLAFLSTESRSIRNSIKDYLPKRNLAILVPVLERFVAFHMTLNMIPPETHKAVMGVIESCKSP"}, "B3": {"name": "HisMBP-SWI1 1-300 (domain or fragment, UniProt Q9FGN8 1-300)", "chain": "MSSTMFVKRNPIRETTAGKISSPSSPTLNVAVAHIRAGSYYEIDASILPQRSPENLKSIRVVMVSKITASDVSLRYPSMFSLRSHFDYSRMNRNKPMKKRSGGGLLPVFDESHVMASELAGDLLYRRIAPHELSMNRNSWGFWVSSSSRRNKFPRREVVSQPAYNTRLCRAASPEGKCSSELKSGGMIKWGRRLRVQYQSRHIDTRKNKEGEESSRVKDEVYKEEEMEKEEDDDDGNEIGGTKQEAKEITNGNRKRKLIESSTERLAQKAKVYDQKKETQIVVYKRKSERKFIDRWSVER"}, "B4": {"name": "SWI1-mTurquiose2 (protein, UniProt Q9FGN8 1-639)", "chain": "B1 chain"}, "B5": {"name": "AMEIOTIC1 (AM1) from maize, yeast two-hybrid fusion (protein, UniProt C0RWW9 1-780)", "chain": "MDVETVQAGPALAAHLQLQASPKPQVKKYYFKKKTSSSHSRNGKDDVNHDSTIQPRSPLSRQSLTFDAIPTYHAGAFYEIDHDKLPPKSPIHLKSIRVVKVSECTNLDITVKFPSLQALRSFFSSYPAPGTGPELDERFVMSSNHAARILRRRVTEEELEGEVQQDSFWLIKPRLYDFAAPQQVPSRTLCLPPPPAPPAATLGLTADSCLLTTLKCDGAGWGMRRRVRYIGRHRDEAPKEASVDGYDTESSVREVQQPPATQEVKRSERNCKRKREAEASSKDNNGDEGKKNNKVQGASKKISKKAKKRTVESKDGDPRHGKDRWSAERYAAAEKSLLNIMRSRDARFGAPVMRQVLREEARKHIGDTGLLDHLLKHMAGRVPEGSVHRFRRRHNADGAMEYWLEPAELAEVRKQAGVSDPYWVPPPGWKPGDDVSLVAGDILVKRQVEELTEEVNGVKRQMEQLLCKDDGDFGAERDYSSLKEKYQRAVRANEKLEKQVLCLKDMCENVVQMNGELKKEVSAFKEKYEHIADKNDKLEEQVTYLSSSFLSFKDQLVVALKLELAPSEAVPRTALFVASGEQMTGTVIQGGQDRAERKSSFRVCKPQGKFLLPSMASGMTIGRGASSTCPAAATPGPGIPRSTSFPSMPGLPRSSRGPVEVVAAASGLDEHVMFGAHFSTPPSASSTNDAAKLQLSLPSPRSPLQPQKLFDTVTAAASGFSPQKLMHFSGLTRRDVDTSSSSSGACGSGLLEGKRVLFDADAGGISAVGTELALATPSYC"}, "B6": {"name": "SWI1 1-300, yeast two-hybrid fusion (domain or fragment, UniProt Q9FGN8 1-300)", "chain": "B3 chain"}, "B7": {"name": "WINGS APART-LIKE 1 (WAPL1), yeast two-hybrid fusion (protein, UniProt F4I7C7 1-930)", "chain": "B2 chain"}, "B8": {"name": "SWI1 301-639, yeast two-hybrid fusion (domain or fragment, UniProt Q9FGN8 301-639)", "chain": "YKLAERNMLKVMKEKNAVFGNSILRPELRSEARKLIGDTGLLDHLLKHMAGKVAPGGQDRFMRKHNADGAMEYWLESSDLIHIRKEAGVKDPYWTPPPGWKLGDNPSQDPVCAGEIRDIREELASLKRELKKLASKKEEEELVIMTTPNSCVTSQNDNLMTPAKEIYADLLKKKYKIEDQLVIIGETLRKMEEDMGWLKKTVDENYPKKPDSTETPLLLEDSPPIQTLEGEVKVVNKGNQITESPQNREKGRKHDQQERSPLSLISNTGFRICRPVGMFAWPQLPALAAATDTNASSPSHRQAYPSPFPVKPLAAKRPLGLTFPFTIIPEEAPKNLFNV"}},
  "key": {"[1]": {"target": "Arabidopsis PDS5A, yeast two-hybrid fusion (limits not stated) (Arabidopsis thaliana) (UniProt B6EUB3)", "assay": "two-hybrid"}, "[2]": {"target": "PDS5A 1-809, yeast two-hybrid fusion (Arabidopsis thaliana)", "assay": "two-hybrid"}, "[3]": {"target": "PDS5A 810-1607, yeast two-hybrid fusion (Arabidopsis thaliana) (UniProt B6EUB3)", "assay": "two-hybrid"}, "[4]": {"target": "HisGST-PDS5A 1-809 (Arabidopsis thaliana)", "assay": "pull-down"}, "[5]": {"target": "HisGST-PDS5A 1-809 (Arabidopsis thaliana)", "assay": "pull-down", "remark": "listed apart in the source"}, "[6]": {"target": "PDS5A, BiFC fusion (Arabidopsis thaliana) (UniProt B6EUB3)", "assay": "split reporter"}, "[7]": {"target": "Arabidopsis PDS5A, yeast two-hybrid fusion (limits not stated) (Arabidopsis thaliana) (UniProt B6EUB3)", "assay": "two-hybrid", "remark": "listed apart in the source"}},
  "note": "Read-outs that look alike come from different tables or passages of the source. No constants are given. Whether binding was seen depends on the method and setting. For some of these results: Binding can be weak; no strength is given. For some of these results: Tags and fused reporters may be left off the sequences shown. For some of these results: In cells and extracts the contact can be indirect.",
  "data": [
    {"molecule": "AMEIOTIC1 (AM1) from rice, yeast two-hybrid fusion (from UniProt Q53KW9)", "values": [
      {"measurement": "binding", "setting": "[1]", "result": "binds"}
    ]},
    {"molecule": "B1", "values": [
      {"measurement": "binding", "setting": "[2]", "result": "binds"},
      {"measurement": "binding", "setting": "[3]", "result": "no binding"}
    ]},
    {"molecule": "B2", "values": [
      {"measurement": "binding", "setting": "[4]", "result": "binds"},
      {"measurement": "binding", "setting": "[5]", "result": "binds"}
    ]},
    {"molecule": "B3", "values": [
      {"measurement": "binding", "setting": "[4]", "result": "binds"},
      {"measurement": "binding", "setting": "[5]", "result": "binds"}
    ]},
    {"molecule": "B4", "values": [
      {"measurement": "binding", "setting": "[6]", "result": "binds"}
    ]},
    {"molecule": "B5", "values": [
      {"measurement": "binding", "setting": "[7]", "result": "binds"}
    ]},
    {"molecule": "B6", "values": [
      {"measurement": "binding", "setting": "[2]", "result": "binds"}
    ]},
    {"molecule": "B7", "values": [
      {"measurement": "binding", "setting": "[2]", "result": "binds"},
      {"measurement": "binding", "setting": "[3]", "result": "no binding"}
    ]},
    {"molecule": "B8", "values": [
      {"measurement": "binding", "setting": "[2]", "result": "no binding"}
    ]}
  ]
}
